The exact form of at least one protein or probe is not confirmed. Results from cells or extracts need not show a direct contact. No signal at the amounts used counts as a negative.
System: Peanut protein extract (target allergen Ara h 1)
Assay: binding assay
Conditions: anchor-displacement chip signal, 100 nM aptamer, 5000 vs 0 ppm peanut, stated minimal response to peanut, protein in an extract, single-stranded DNA

## TAGGGAAGAGAAGGACATATGATCGTACCGCAAGTGACGTGTCCGTGCCGTGATTGACTAGTACATGACCACTTGA [PC60]
p=0.981
  binding result: no binding

## TAGGGAAGAGAAGGACATATGATGCACTGGCTGACCTACACGTGGACGATGTGTTGACTAGTACATGACCACTTGA [PC36]
p=0.612 and 0.069
  binding result: no binding

## TAGGGAAGAGAAGGACATATGATGCGTGTCAGCAATACGTCCTCATCTGCCCGTTGACTAGTACATGACCACTTGA [PC87]
p=0.920 and 0.791
  binding result: no binding

From patent US20220073911
